# No constants are given. Whether binding was seen depends on the method and setting. In cells and extracts the contact can be indirect. Some entries that bind do so weakly or less than the wild type. Where a sequence is shown, tags or fusion partners need not be part of it.
# Protein sequences, listed by entry. Tags and fused reporters are not part of them. Lines headed by an entry give the natural chain unless they say otherwise; changes in a name come on top.
# UniProt P05556: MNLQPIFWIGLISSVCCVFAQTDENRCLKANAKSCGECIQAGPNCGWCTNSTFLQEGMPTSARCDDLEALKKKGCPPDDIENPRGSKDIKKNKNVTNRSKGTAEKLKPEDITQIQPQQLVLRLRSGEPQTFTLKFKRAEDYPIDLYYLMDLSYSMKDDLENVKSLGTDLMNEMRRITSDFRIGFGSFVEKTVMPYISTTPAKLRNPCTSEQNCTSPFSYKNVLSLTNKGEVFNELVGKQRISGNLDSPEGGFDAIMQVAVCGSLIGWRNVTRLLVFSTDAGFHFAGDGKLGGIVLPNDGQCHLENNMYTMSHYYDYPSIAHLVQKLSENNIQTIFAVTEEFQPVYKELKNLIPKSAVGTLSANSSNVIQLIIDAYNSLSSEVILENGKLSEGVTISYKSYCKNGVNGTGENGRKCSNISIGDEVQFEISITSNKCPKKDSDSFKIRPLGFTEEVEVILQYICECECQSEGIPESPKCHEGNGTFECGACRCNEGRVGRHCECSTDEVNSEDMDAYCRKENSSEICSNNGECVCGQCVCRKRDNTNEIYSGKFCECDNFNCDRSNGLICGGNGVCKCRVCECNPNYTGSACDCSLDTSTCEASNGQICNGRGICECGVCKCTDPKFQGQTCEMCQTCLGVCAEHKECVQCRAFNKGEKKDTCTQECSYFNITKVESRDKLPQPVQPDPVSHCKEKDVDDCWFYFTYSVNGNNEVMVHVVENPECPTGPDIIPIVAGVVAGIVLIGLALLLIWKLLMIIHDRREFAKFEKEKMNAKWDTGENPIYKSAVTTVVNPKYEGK
# What was measured:
# [1] = molecular target: T1, Flag-GCWT (wild type group-specific component protein, vitamin D binding protein) (UniProt P02774); assay: co-IP; shGCWT-2 Patu8988 and PANC-1 cells overexpressing Flag-GCWT or Flag-GCDEL; lysate (IP lysis buffer) incubated with anti-Flag magnetic beads overnight at 4 °C, PBST washes; immunoblot; wild type cells as negative control
# T1 sequence: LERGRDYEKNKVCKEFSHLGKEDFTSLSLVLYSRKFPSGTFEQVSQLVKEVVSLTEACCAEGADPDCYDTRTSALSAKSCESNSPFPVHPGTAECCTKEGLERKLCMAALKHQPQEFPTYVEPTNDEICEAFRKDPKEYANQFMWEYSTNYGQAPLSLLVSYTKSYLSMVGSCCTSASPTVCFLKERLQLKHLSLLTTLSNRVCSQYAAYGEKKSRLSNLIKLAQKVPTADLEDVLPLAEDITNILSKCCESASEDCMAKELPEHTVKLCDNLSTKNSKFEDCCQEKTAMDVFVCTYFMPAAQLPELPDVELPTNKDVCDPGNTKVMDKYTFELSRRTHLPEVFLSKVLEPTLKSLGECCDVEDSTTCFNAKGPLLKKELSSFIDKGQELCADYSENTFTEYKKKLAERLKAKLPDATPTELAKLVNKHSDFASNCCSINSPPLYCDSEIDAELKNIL
# [2] = molecular target: T1, Flag-GCWT (wild type group-specific component protein, vitamin D binding protein); assay: co-IP; N008 human primary Schwann cells; lysate (IP lysis buffer) incubated with anti-Flag magnetic beads overnight at 4 °C, PBST washes; immunoblot
substance,measurement,setting,value
integrin β1 (ITGB1) (from UniProt P05556 21-798) (receptor),binding,[1],binds
same,binding,[2],binds

# Source: publication PMC12667536
